Experimental data as given in PMC9203792.
These are yes or no findings as the source states them, for the method shown. In cells and extracts the contact can be indirect. Some binding calls cover weakened binding; strength is not graded here. For some assays here: Tags and fused reporters may be left off the sequences shown.

Experiments:
MFN1 1–336 = target: T1, MFN1 1–336 (UniProt Q8IWA4); experiment: co-IP; HEK293T cells transfected with tagged constructs; mild lysis buffer (100 mM NaCl, 1% NP40, 10 mM Tris pH 7.5, 10 mM EDTA), antibody 2 h at 4 °C, protein G-Sepharose; western blotting
T1 sequence: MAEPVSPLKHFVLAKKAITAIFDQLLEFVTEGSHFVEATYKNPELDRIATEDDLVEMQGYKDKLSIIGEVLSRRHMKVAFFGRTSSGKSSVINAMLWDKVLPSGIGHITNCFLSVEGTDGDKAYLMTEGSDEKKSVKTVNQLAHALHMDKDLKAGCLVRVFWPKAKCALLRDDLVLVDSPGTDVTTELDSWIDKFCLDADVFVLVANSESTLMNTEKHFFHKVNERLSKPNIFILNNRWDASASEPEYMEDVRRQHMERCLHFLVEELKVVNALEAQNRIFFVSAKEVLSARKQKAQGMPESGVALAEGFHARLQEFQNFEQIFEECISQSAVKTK

[1] = target: T2, MFN1, ectopically expressed (UniProt Q8IWA4); experiment: as above
T2 sequence: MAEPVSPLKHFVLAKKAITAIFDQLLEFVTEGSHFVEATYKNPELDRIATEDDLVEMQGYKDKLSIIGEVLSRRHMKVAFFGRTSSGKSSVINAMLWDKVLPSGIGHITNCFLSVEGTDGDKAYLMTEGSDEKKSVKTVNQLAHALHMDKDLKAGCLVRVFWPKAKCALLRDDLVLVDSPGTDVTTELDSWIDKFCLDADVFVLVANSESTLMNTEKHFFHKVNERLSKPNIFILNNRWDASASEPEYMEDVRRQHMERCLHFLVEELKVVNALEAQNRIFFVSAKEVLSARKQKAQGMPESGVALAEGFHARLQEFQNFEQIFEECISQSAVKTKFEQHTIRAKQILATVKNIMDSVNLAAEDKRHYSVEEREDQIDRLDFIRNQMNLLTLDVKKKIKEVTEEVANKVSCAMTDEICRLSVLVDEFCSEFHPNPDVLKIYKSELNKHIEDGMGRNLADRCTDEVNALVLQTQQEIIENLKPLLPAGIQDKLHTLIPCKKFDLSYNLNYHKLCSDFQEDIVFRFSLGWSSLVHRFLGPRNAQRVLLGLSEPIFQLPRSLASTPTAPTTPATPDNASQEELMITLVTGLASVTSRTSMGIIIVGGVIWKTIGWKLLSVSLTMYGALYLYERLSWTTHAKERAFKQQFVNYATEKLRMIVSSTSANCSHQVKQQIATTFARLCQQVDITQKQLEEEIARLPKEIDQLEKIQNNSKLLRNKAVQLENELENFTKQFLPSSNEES

MFN1 1–584 = target: T3, MFN1 1–584 (UniProt Q8IWA4); experiment: as above
T3 sequence: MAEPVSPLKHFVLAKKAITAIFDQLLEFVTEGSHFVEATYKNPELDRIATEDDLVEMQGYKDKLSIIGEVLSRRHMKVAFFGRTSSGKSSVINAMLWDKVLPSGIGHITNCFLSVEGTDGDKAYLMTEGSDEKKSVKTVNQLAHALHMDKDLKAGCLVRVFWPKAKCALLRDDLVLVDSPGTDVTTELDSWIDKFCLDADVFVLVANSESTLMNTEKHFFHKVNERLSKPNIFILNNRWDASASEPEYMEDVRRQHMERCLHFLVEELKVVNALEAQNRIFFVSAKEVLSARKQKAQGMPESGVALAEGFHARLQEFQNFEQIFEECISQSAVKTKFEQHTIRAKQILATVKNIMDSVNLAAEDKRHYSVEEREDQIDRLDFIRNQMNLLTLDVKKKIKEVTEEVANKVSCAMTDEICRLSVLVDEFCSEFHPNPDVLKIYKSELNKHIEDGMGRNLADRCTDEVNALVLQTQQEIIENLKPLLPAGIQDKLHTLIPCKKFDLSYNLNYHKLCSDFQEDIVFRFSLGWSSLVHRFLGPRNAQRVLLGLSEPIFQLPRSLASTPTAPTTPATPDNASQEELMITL

[2] = target: T4, MFN2, ectopically expressed (UniProt O95140); experiment: as above
T4 sequence: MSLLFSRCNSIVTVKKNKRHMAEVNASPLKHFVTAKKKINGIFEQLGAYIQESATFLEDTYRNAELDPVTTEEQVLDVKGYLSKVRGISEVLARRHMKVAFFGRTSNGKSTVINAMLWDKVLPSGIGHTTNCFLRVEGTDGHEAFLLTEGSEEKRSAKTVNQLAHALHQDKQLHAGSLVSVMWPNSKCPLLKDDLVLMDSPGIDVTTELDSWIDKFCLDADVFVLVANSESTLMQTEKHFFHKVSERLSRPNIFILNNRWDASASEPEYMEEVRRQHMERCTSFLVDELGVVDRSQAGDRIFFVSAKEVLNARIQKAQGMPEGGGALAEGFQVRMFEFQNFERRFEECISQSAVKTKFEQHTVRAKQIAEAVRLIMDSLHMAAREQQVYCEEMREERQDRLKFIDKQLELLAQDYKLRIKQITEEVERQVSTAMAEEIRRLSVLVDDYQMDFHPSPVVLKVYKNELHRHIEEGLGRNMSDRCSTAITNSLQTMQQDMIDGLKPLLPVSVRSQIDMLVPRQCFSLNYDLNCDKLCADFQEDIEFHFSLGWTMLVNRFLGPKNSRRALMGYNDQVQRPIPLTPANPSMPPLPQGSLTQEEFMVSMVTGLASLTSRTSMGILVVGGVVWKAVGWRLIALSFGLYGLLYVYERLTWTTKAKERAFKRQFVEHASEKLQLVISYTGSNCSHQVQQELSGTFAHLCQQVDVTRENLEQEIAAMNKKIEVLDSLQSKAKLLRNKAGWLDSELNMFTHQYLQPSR

[3] = target: T5, mitofusin 2 (MFN2), endogenous (human (endogenous in Huh-7)) (UniProt O95140); experiment: co-IP; endogenous proteins in Huh-7 lysate; mild lysis buffer (100 mM NaCl, 1% NP40, 10 mM Tris pH 7.5, 10 mM EDTA), protein G-Sepharose; western blotting
T5 sequence: T4 sequence

[4] = target: T6, mitofusin 1 (MFN1), endogenous (human (endogenous in Huh-7)) (UniProt Q8IWA4); experiment: as above
T6 sequence: T2 sequence

B1: FUNDC2 1–127 (domain or fragment, UniProt Q9BWH2 1-127)
chain: METSAPRAGSQVVATTARHSAAYRADPLRVSSRDKLTEMAASSQGNFEGNFESLDLAEFAKKQPWWRKLFGQESGPSAEKYSVATQLFIGGVTGWCTGFIFQKVGKLAATAVGGGFFLLQLANHTGY
binding (MFN1 1–336): binds
binding [1]: binds

B2: FUNDC2, ectopically expressed (protein, UniProt Q9BWH2 1-189)
chain: METSAPRAGSQVVATTARHSAAYRADPLRVSSRDKLTEMAASSQGNFEGNFESLDLAEFAKKQPWWRKLFGQESGPSAEKYSVATQLFIGGVTGWCTGFIFQKVGKLAATAVGGGFFLLQLANHTGYIKVDWQRVEKDMKKAKEQLKIRKSNQIPTEVRSKAEEVVSFVKKNVLVTGGFFGGFLLGMAS
binding (MFN1 1–584): binds
binding [2]: binds
binding (MFN1 1–336): binds
binding [1]: binds

B3: FUN14 domain containing 2 (FUNDC2), endogenous (protein, UniProt Q9BWH2 1-189)
chain: B2 chain
binding [3]: binds
binding [4]: binds
